Results are given in words; binding and its absence hold for the method and conditions named. In cells and extracts the contact can be indirect. A yes stands for co-enrichment or nearness to the bait. Other partners may have been found.
Target: HEB (mouse (endogenous in Comma-Dβ)) (UniProt Q61286)
Assay: affinity purification with mass spectrometry

Protein sequences, listed by entry. Tags and fused reporters are not part of them.
UniProt Q61286: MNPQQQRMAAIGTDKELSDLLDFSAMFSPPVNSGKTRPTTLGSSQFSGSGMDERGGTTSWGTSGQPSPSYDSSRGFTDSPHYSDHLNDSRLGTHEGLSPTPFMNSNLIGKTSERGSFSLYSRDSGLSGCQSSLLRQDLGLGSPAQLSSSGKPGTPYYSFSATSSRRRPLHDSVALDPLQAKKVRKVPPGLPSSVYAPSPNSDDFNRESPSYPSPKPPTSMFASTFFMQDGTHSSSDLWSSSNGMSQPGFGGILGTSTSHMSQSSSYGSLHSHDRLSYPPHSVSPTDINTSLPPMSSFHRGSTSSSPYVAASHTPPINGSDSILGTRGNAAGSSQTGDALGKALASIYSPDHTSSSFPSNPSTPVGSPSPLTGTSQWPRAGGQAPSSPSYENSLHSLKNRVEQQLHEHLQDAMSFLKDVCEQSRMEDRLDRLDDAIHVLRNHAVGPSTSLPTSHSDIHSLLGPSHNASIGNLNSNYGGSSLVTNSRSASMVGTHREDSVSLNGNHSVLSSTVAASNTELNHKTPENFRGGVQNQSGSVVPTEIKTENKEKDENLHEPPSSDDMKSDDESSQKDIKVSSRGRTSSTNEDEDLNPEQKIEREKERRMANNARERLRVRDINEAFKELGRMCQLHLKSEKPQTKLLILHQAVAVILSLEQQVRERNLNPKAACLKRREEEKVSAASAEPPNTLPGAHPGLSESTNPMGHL

binding: binds
B1: Inhibitor of Differentiation 4 (ID4) (protein, UniProt P41139 1-161)
chain: MKAVSPVRPSGRKAPSGCGGGELALRCLAEHGHSLGGSAAAAAAAAAARCKAAEAAADEPALCLQCDMNDCYSRLRRLVPTIPPNKKVSKVEILQHVIDYILDLQLALETHPALLRQPPPPAPPLHPAGACPVAPPRTPLTALNTDPAGAVNKQGDSILCR

From article doi:10.1101/2020.04.06.026963
